Laboratory results reported in patent US20160347831A1.
Residue numbers refer to the chain shown, from its start. These are yes or no findings as the source states them, for the method shown. Some results given as binding are weak or reduced against the parent protein; the word gives no strength.

Protein sequences, listed by entry. Tags and fused reporters are not part of them. Residues count along the entry.
amyloid β in amyloid plaques (P05067, residues 672-713): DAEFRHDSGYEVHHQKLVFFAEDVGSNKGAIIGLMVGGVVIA
amyloid β in cerebral amyloid angiopathy (CAA) (P05067, residues 672-711): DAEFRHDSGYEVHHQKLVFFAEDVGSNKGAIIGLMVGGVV

Tests used:
[1] = target: amyloid β in amyloid plaques (UniProt P05067); assay: IHC after stereotaxic injection in TauPS2APP mice
[2] = target: amyloid β in amyloid plaques (UniProt P05067); assay: immunohistochemistry on human AD brain sections
[3] = target: amyloid β in amyloid plaques (UniProt P05067); assay: labeling (Table 1)
[4] = target: amyloid β in amyloid plaques (UniProt P05067); assay: IHC after intracarotid infusion in mice
[5] = target: amyloid β in amyloid plaques (UniProt P05067); assay: labeling (Table 1); cell shared by the rows R3VE and R3VQ
[6] = target: amyloid β in amyloid plaques (UniProt P05067); assay: IHC after intracarotid injection in mice
[7] = target: amyloid β in cerebral amyloid angiopathy (CAA) (UniProt P05067); assay: labeling (Table 1)
[8] = target: amyloid β in amyloid plaques (UniProt P05067); assay: ex vivo MRI after intravenous injection in PS2APP mice
[9] = target: amyloid β in amyloid plaques (UniProt P05067); assay: in vitro MRI, legend of FIG. 12
[10] = target: amyloid β in amyloid plaques (UniProt P05067); assay: ex vivo MRI after iv injection, legend of FIG. 13
[11] = target: amyloid β in amyloid plaques (UniProt P05067); assay: in vitro MRI of PS2APP mouse brains incubated at 0.1 mg/ml
[12] = target: amyloid β in amyloid plaques (UniProt P05067); assay: IHC
[13] = target: amyloid β in amyloid plaques (UniProt P05067); assay: IHC on B6 PS2APP mouse paraffin sections
[14] = target: amyloid β in amyloid plaques (UniProt P05067); assay: IHC on B6.PS2APP mouse paraffin sections
[15] = target: amyloid β in amyloid plaques (UniProt P05067); assay: IHC after stereotaxic injection in mice
[16] = target: amyloid β in amyloid plaques (UniProt P05067); assay: IHC and MRI after soaking TauPS2APP mouse brains
[17] = target: amyloid β in amyloid plaques (UniProt P05067); assay: IHC and ex vivo MRI after intracerebroventricular injection
[18] = target: amyloid β in amyloid plaques (UniProt P05067); assay: IHC and MRI after intracerebroventricular injection

Measured: binding

B1: VHH R3VQ (VHH, not shown: small tags and cut ends)
VHH: EVQLQASGGGLVQTGDSLRLSCADSGSTFRNYNIGWFRQTPGQAREFVAAVSRTGISTHVADSLQGRFTISRDNAKNTVYLQMNSLKPEDTAVYSCAAGRPGVGAVNRAMDYDYWGQGTQVTVSS
binds: [1] | [2] | [3] | [4] | [5] | [6]

B2: VHH R3VE (VHH, not shown: small tags and cut ends)
VHH: B1 VHH with Q5E
binds: [7]

B3: R3VQ-S-(DOTA/Gd)3 (VHH)
VHH: B1 VHH with E1A, S124G, S125G
modifications: maleimido-(DOTA/Gd)3 compound 4 on the engineered C-terminal Cys (thio-addition)
binds: [8] | [9] | [10] | [11] | [12]

B4: R3VQ-SH (VHH)
VHH: B1 VHH with E1A, S124G, S125G
binds: [13] | [14]

B5: R3VQ-N-(DOTA/Gd)1-2 2e (VHH, not shown: small tags and cut ends)
VHH: B1 VHH
modifications: DOTA/Gd randomly distributed on lysine residues; average Gd/protein (0) 1 2 (3)
binds: [15] | [16] | [17] | [18]
